From US11787835B2, “C19 scaffolds and steroids and methods of use and manufacture thereof” (Trustees of Dartmouth College, priority 2018, dated 2023)
At least one compound was matched to its structure with a doubt left.

Legend:
[1] = system: DU-145 prostate cancer cells (endogenous ERβ); assay: Alkaline phosphatase activity in DU-145 prostate cancer cells; type: cell-based, human; conditions: DU-145 cells, 24 hours, 5 μM, FIG. 2
Procedure: FIG. 2 is a bar graph showing alkaline phosphatase activity in human DU-145 prostate cancer cells (17β-estradiol, Compound 100, and Compound 101 were evaluated at 5 μM).
The DU-145 prostate cancer cell line only expresses ERβ and can be used as a model to examine the activation of ERβ in the absence of any potential confounding signal driven by ERα. Alkaline phosphatase (ALP) expression is induced in an ER-dependent manner and has been used to characterize the activity of synthetic ER agonists and antagonists.
In order to examine the ability of Compound 100 and Compound 101 to activate ERβ in the context of a cell line expressing endogenous ERβ, DU-145 cells were treated for 24 hours with either 17β-estradiol, Compound 100, or Compound 101 and ALP activity derived from the cells was examined.

[2] = system: U251 and U87 cells; assay: Incucyte live cell imaging of morphological changes; type: cell-based, human; conditions: over five days, FIG. 3D
Procedure: FIG. 3D depicts phase-contrast images using Incucyte for live cell tracking of U251 and U87 cells in response to treatment with Compound 100, Compound 101, TMZ, and vehicle control DMSO. Live cells were tracked and imaged for 96 hours (data not shown). Scale bar=300 μm. All data in FIG. 3A-3D are representative of four independent experiments and four replicates of each treatment condition were analyzed per experiment.
In order to elucidate the mechanism of this cell death, glioblastoma cells treated for 24 hours with Compound 100, Compound 101, TMZ, or DMSO control were analyzed for early and late apoptosis markers (Annexin V and 7-Aminoactinomycin D) by FACS analyses. […] Additionally, over a period of five days, morphological changes in U251 and U87 cells treated with Compound 100 and Compound 101 were tracked using the Incucyte live cell imaging system.

[3] = system: established tumors; assay: In vivo growth of established tumors; conditions: initial studies
Source text: In comparison to 17β-estradiol, Compound 100 and Compound 101 have a unique profile for selective agonism of ERβ (FIG. 1).

[4] = system: U251 and U87 cells; assay: Growth inhibition and viable cell counts of glioblastoma cell lines; type: cell-based, human; conditions: assessed every 24 hours for 5 days, compared to TMZ or DMSO, FIG. 3B
Procedure: FIG. 3A-3B are line graphs depicting (A) dose dependent growth inhibition of U251 and U87 cells treated with Compound 100, Compound 101, TMZ, and vehicle control DMSO (n=4) and (B) viable cell counts of U251 and U87 cells treated with Compound 100, Compound 101, TMZ, and vehicle control DMSO determined every 24 hours for 96 hours (n=4)
To determine the biological effect of Compound 100 and Compound 101, human glioblastoma-derived cell lines U251 and U87 were treated with varying concentrations of Compound 100, Compound 101, temazolomide (TMZ; a standard of care chemotherapeutic agent), or vehicle-toxicity control, dimethylsulfoxide (DMSO) used at final volumes that were identical to those used to attain all concentrations tested of Compound 100 and Compound 101.

SMILES: C[C@@]12CC[C@]3(C)C(=C1C[C@H](O)C2)CCc1cc(O)ccc13 [Compound 101, (9R,13S,16R)-9,13-dimethyl-7,9,11,12,13,15,16,17-octahydro-6H-cyclopenta[a]phenanthrene-3,16-diol]
- induction of ALP activity [1]: effective at inducing ALP to levels comparable to 17β-estradiol
- morphological changes (adherence, cellular integrity) [2]: Increased loss of adherence and cellular integrity
- growth of established tumors in vivo [3]: reduces the growth of established tumors
- viability and proliferation of glioblastoma lines [4]: reduced viability and the resulting proliferation of glioblastoma lines in a dose dependent manner
